Common to all, as to assay: co-IP
Test [1] concerns the target DrSTINGΔCTT (Danio rerio STING with the C-terminal tail ablated) (Danio rerio).
The target in test [2] is HA-MmSTINGΔCTTΔCBD (Mus musculus STING mutant comprising the TM domain alone) (Mus musculus).
The target of test [3] is MmSTINGΔCTT (Mus musculus STING with the C-terminal tail ablated) (Mus musculus).
In test [4] the target is HA-HsSTING-HAQ (human STING haplotype R71H-G230A-R293Q), expressed in HEK 293T (human) (UniProt Q86WV6).
Test [5] addresses HA-HsSTING-R232H (human STING haplotype R232H), expressed in HEK 293T (human) (UniProt Q86WV6).
Test [6] has as its target HA-HsSTING-R232H stably expressed in THP-1 Sting-/- cells (THP-1^HsSTING-R232H) (human) (UniProt Q86WV6).
Test [7] addresses HA-HsSTING-R232H-ΔCTT stably expressed in THP-1 Sting-/- cells (THP-1^HsSTING-R232H-ΔCTT) (human) (UniProt Q86WV6).

Protein sequences, listed by entry. Tags and fused reporters are not part of them. Lines headed by an entry give the natural chain unless they say otherwise; changes in a name come on top.
UniProt Q86WV6: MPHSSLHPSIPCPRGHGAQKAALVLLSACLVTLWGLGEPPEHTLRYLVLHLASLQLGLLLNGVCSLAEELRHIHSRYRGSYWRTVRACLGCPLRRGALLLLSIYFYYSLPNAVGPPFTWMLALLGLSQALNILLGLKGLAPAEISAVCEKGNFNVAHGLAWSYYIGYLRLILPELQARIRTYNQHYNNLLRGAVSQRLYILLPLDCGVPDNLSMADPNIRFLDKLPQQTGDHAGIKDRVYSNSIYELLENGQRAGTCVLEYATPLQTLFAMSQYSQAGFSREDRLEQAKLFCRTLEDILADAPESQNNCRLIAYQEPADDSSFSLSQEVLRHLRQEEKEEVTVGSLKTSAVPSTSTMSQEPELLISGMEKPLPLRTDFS

These are yes or no findings as the source states them, for the method shown. In cells and extracts the contact can be indirect. Binding calls can cover weak binding; strength is not graded here. For some of these results: Where a sequence is shown, tags or fusion partners need not be part of it.

B1: MmFADS2-FLAG (fatty acid desaturase 2 of Mus musculus) (protein)
chain: MGKGGNQGEGSTERQAPMPTFRWEEIQKHNLRTDRWLVIDRKVYNVTKWSQRHPGGHRVIGHYSGEDATDAFRAFHLDLDFVGKFLKPLLIGELAPEEPSLDRGKSSQITEDFRALKKTAEDMNLFKTNHLFFFLLLSHIIVMESLAWFILSYFGTGWIPTLVTAFVLATSQAQAGWLQHDYGHLSVYKKSIWNHVVHKFVIGHLKGASANWWNHRHFQHHAKPNIFHKDPDIKSLHVFVLGEWQPLEYGKKKLKYLPYNHQHEYFFLIGPPLLIPMYFQYQIIMTMISRRDWVDLAWAISYYMRFFYTYIPFYGILGALVFLNFIRFLESHWFVWVTQMNHLVMEIDLDHYRDWFSSQLAATCNVEQSFFNDWFSGHLNFQIEHHLFPTMPRHNLHKIAPLVKSLCAKHGIEYQEKPLLRALIDIVSSLKKSGELWLDAYLHK
Consider B1, for which the binding result in test [1], in test [2] and in test [3] was “binds” each time.

B2: HsFADS2-FLAG (human fatty acid desaturase 2) (protein, UniProt O95864 1-444)
chain: MGKGGNQGEGAAEREVSVPTFSWEEIQKHNLRTDRWLVIDRKVYNITKWSIQHPGGQRVIGHYAGEDATDAFRAFHPDLEFVGKFLKPLLIGELAPEEPSQDHGKNSKITEDFRALRKTAEDMNLFKTNHVFFLLLLAHIIALESIAWFTVFYFGNGWIPTLITAFVLATSQAQAGWLQHDYGHLSVYRKPKWNHLVHKFVIGHLKGASANWWNHRHFQHHAKPNIFHKDPDVNMLHVFVLGEWQPIEYGKKKLKYLPYNHQHEYFFLIGPPLLIPMYFQYQIIMTMIVHKNWVDLAWAVSYYIRFFITYIPFYGILGALLFLNFIRFLESHWFVWVTQMNHIVMEIDQEAYRDWFSSQLTATCNVEQSFFNDWFSGHLNFQIEHHLFPTMPRHNLHKIAPLVKSLCAKHGIEYQEKPLLRALLDIIRSLKKSGKLWLDAYLHK
Consider B2, for which the binding entry in test [4] and in test [5] was “binds” in each case.

B3: FADS2 of THP-1 human myeloid cells (protein, UniProt O95864 1-444)
chain: MGKGGNQGEGAAEREVSVPTFSWEEIQKHNLRTDRWLVIDRKVYNITKWSIQHPGGQRVIGHYAGEDATDAFRAFHPDLEFVGKFLKPLLIGELAPEEPSQDHGKNSKITEDFRALRKTAEDMNLFKTNHVFFLLLLAHIIALESIAWFTVFYFGNGWIPTLITAFVLATSQAQAGWLQHDYGHLSVYRKPKWNHLVHKFVIGHLKGASANWWNHRHFQHHAKPNIFHKDPDVNMLHVFVLGEWQPIEYGKKKLKYLPYNHQHEYFFLIGPPLLIPMYFQYQIIMTMIVHKNWVDLAWAVSYYIRFFITYIPFYGILGALLFLNFIRFLESHWFVWVTQMNHIVMEIDQEAYRDWFSSQLTATCNVEQSFFNDWFSGHLNFQIEHHLFPTMPRHNLHKIAPLVKSLCAKHGIEYQEKPLLRALLDIIRSLKKSGKLWLDAYLHK
For B3, the binding result in test [6] and in test [7] was “binds” throughout.
